In patent US20090226442A1:
Results are given in words; binding and its absence hold for the method and conditions named. Some entries that bind do so weakly or less than the wild type.

By UniProt entry, the sequences of proteins in these tests, tags left out. Where a name states a change or a piece, a line headed by the entry shows the natural chain unless it says otherwise.
UniProt Q04912: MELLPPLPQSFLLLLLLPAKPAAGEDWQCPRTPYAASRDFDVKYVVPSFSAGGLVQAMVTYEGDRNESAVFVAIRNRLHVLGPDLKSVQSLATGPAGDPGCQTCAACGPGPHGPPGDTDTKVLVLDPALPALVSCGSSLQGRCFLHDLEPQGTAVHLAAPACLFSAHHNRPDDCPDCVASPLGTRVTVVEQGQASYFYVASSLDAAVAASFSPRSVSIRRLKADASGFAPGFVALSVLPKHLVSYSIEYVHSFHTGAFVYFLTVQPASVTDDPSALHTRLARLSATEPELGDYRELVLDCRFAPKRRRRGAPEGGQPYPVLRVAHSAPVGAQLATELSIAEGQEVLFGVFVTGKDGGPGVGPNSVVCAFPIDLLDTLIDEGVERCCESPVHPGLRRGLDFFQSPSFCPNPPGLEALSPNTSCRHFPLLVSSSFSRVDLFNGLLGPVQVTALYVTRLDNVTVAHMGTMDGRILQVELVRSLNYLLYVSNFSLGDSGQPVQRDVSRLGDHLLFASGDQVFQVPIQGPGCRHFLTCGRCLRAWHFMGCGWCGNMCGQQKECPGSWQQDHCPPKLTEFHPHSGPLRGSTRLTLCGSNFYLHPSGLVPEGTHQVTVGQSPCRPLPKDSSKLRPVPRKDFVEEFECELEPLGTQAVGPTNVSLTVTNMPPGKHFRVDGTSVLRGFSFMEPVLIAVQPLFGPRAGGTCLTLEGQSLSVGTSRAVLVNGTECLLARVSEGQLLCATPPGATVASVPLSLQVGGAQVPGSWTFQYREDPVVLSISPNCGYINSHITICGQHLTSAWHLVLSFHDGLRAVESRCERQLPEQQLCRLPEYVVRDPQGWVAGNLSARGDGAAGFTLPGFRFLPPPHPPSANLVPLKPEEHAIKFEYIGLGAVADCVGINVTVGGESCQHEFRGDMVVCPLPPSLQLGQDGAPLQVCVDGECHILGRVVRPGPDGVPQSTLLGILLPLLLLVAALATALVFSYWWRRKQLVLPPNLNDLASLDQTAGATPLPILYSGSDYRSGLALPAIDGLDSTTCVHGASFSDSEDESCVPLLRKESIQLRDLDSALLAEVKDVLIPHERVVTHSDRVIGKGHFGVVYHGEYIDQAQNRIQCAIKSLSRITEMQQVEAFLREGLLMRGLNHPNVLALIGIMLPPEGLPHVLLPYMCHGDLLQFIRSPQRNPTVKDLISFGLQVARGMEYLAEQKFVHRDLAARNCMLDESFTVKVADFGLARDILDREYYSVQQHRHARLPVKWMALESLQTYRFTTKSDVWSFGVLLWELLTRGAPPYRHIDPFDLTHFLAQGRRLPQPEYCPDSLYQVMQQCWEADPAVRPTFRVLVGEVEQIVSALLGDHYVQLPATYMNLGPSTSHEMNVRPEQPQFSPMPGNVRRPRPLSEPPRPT

Tests used:
[1] = target: soluble cynomolgus (Macaca fascicularis) RON protein (cynomolgus (Macaca fascicularis)); assay: ELISA on plate-coated soluble cyno RON
[2] = target: soluble human RON protein (R&D Systems, catalog 1947) (human) (UniProt Q04912); assay: ELISA on plate-coated soluble RON
[3] = target: soluble human RON protein (R&D Systems, catalog 1947) (human) (UniProt Q04912); assay: ELISA on plate-coated soluble human RON

Measured: binding

B1: 1P3B2 murine monoclonal anti-RON antibody (antibody, V domains shown)
VH: EVQLQQSGPELEKPGASVKISCKASGYSFTGYNMNWVKQSNGESLEWIGDIDPYYGGTRYNQKFKGKATLTVDKSSSTAYMQLKSLTSEDSAVYYCAREGRGFAYWGQGTLVTVSA
VL: DIQMTQSPASLSASVGETVTITCRASENIYSYLAWYQKKQGKSPQLLVYNAKTSVEGVPSRFSGSGSGIQFSLKINSLQPEDFGSYYCHCQHHYGTLPTFGGGTKLEIK
binds: all assays above

B2: 1P4A3 murine monoclonal anti-RON antibody (antibody, V domains shown)
VH: EVQLQQSGPELEKPGASVMISCKASGYSFTGYNMNWVKQSTGKSLEWIGDIDPYYDGTRYNQKFKGKATLTADKSSSTAYMQLKSLTSEDSAVYYCTREGRGFAYWGQGTLVTVSA
VL: DIQMTQSPASLSASVGETVTITCRASENIYSYLAWYQQKQGKSPQLLVYNAKTLAGGVPSRFSGSGSGTQFSLKINSLQPEDFGSYYCQHYYGTPLTFGAGTKLELK
binds: all assays above

B3: 1P4A12 murine monoclonal anti-RON antibody (antibody, V domains shown)
VH: EVQLQQSGPELVKPGASMKISCKASGYSFTGYTMNWVKQSHGKKLEWIGLINPYNGGTIYNQKFKGKATLTVDKSSSTAYMELLSLTSEDSAVYYCARWLRRGGYAMDYWGQGASVTVSS
VL: DILLTQSPAILSVSPGERVSFSCRASQSIGTSIHWYQQRTNGSPRLLIKFASESISGIPSRFSGSGSGTDFTLSINSVESEDIADYYCQQSDSWPLTFGAGTKLEVK
binds: all assays above

B4: 1P5B10 murine monoclonal anti-RON antibody (antibody, V domains shown)
VH: EVQLQQSGPELVKPGASMKISCRAAGFSFTGYTMNWVKQSHGKSLEWIGLINLNNGGTSHNQKFKGKATLTVDKSSSTAYMELLSLTSEDSAVYYCARWLRRGGYAMDYWGQGISVTVSS
VL: DILLTQSPAILSVSPGERVSFSCRASQNIGTSIHWYQQRTNGSPRLLIKYASESISGIPSRFSGSGSGTDFTLSINSVESEDIADYYCQQSDSWPLTFGAGTKLELK
binds: all assays above
